# Assay results from patent publication US20170165253A1, “TREATMENT OF SEXUAL DYSFUNCTION AND FOR IMPROVED SEXUAL QUALITY OF LIFE” (ReJoy, priority 2015, published 2017).
# At least one structure is not confirmed: it was looked up by name or label, or the drawing left a doubt.
# Test system: NAC
# Assay: Acetylcholine receptor agonists: nipple erection and sensitivity (Example 13)
# Assay type: in vivo, human
# Conditions: single topical dose to one NAC, one subject per agent
# Experimental: A study was conducted to assess the effectiveness of different acetylcholine receptor agonists on eliciting nipple erection and increasing nipple sensitivity in normal women aged 18-65. Ten subjects were recruited. Each subject was randomly assigned a single agonist. Each subject self-administered a single dose of the agonist to one NAC that was self-reported as the least sensitive (or if no differential sensitivity, then the left NAC). The agonists were applied in topical solutions to the NAC. The subject was supervised by a medical professional. Blood pressure and heart rate were monitored at baseline, 5 minutes, 10 minutes, and 30 minutes. […] Subjects were asked to report if they experienced nipple erection and sensitivity in less than 10 minutes and if the effect lasted more or less than 10 minutes. The subjects all responded to the agonists. The effect was short-lived; however, sensitivity is some of the subjects was reported up 60 minutes later.
compound,measurement,value
CC(=O)OCC[N+](C)(C)C [Acetylcholine],Nipple Erection (Yes/No),Yes
same,Nipple Sensitivity (Yes/No),Yes
